# Measurements taken from PubChem BioAssay AID1347423 (Functional Genomics Laboratory (NCATS/FGL), 2020).
# Out of some 52,000 sequences screened, about 210 (0.4%) were called active.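 The calls were made as follows: active = gene whose silencing raises cell survival under the drug, median off-target-corrected z-score across its silencing RNAs 2 or more; inactive = the rest.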 Some of the results follow.
# Assay: Resistance to Poly (ADP-Ribose) Polymerase inhibitor: Gene Identification via Genome-wide siRNA Screen
# Details: mouse BRCA2 R2336H ES cells, olaparib, CellTiter-Glo viability; active compounds read high
# Summary of the method: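 Genome-wide siRNA screen (3 siRNAs/gene, 20 nM) in mouse ES cells carrying hypomorphic BRCA2 R2336H; olaparib 500 nM added 48 h post-transfection, CellTiter-Glo viability 72 h later. Normalized to plate-median negative control; MAD z-scores, gene median, seed-adjusted.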
row,Sequence,z-score
1,GGAAGCAGACAAUUGGUUUTT against MGC27863,inactive: -0.328
2,GCGAAGUUCCUGAGAUGGATT against Icsbp1,inactive: -0.279
3,GGUUUCGACUCUGAUGUCATT against Rai12,inactive: -1.97
4,GGUUGUAGGAAGAAGAGAATT against Olfr957,inactive: -1.73
5,GGCAGUUACAAAGUCUGUUTT against Timm8b,inactive: -2.25
6,CGACAUUUUACUAAGAGAUTT against 5133401N09Rik,inactive: -0.306
7,CCCGCAACAAUAAACCUGATT against Yif1b,inactive: 0.665
8,GGUACCUGAGGAAAAGGUUTT against Nalp2,inactive: -0.44
9,CCAUUUCCUACGCAAAAUGTT against Olfr1423,inactive: 1.68
10,GGACCAGUUAGAGCAAAUGTT against 2300002M23Rik,inactive: -0.679
11,GGCAGUCUCAGGUUAUCUCTT against AW610627,inactive: 1.08
12,CCGUGGACCUAGGACUCAUTT against Olfr622,inactive: -1.87
13,GCAGGAGAACUUUUUUAGUTT against Hus1,inactive: 0.159
14,CCUUCAUAUCCCAGUAAAATT against 5730494N06Rik,inactive: -1.44
15,GGUAUGUCCGACAUUUAACTT against Irx5,inactive: 0.502
16,GGAUAUAGAAGAUGAAGAATT against 2810408A11Rik,inactive: -0.299
17,GCCGCUACCUAUGAUGUCCTT against Kcne4,inactive: 0.615
18,CGGACAAAUGCUGUGCGUUTT against Kcnd1,inactive: 0.605
19,CGCACAUGAAGCCACAUAUTT against Plekhb1,inactive: -1
20,GGUUAUAGACAAGAUCGAUTT against Comp,inactive: 0.263
21,GCUAUUGACAUAAUGAGGCTT against Nfe2l3,inactive: -0.195
22,CCGUACUUAUGUUAGCUGATT against Csnk1a1,inactive: -1.21
23,GGAAACCUUUACCAUAAACTT against AU040950,inactive: -0.371

row,Sequence,z-score
1,GGUUUCCAGUUAUCUUAAUTT against 4921508O11Rik,inactive: -1.25
2,GCUCAUGCAACUCUGCGUUTT against Dpyd,inactive: 1.23
3,GGCAAUAGGCAAUGGAAAATT against V2r15,inactive: 1.2
4,GGAGGAAGACACUCCCUCUTT against Atf4,inactive: 2.42
5,GGACUUCGACAAACUGAAGTT against C530030I18Rik,inactive: -2.35
6,GCGAAUGCUGGAGAAACUUTT against Aif1,inactive: -1.05
7,GCCCACUCACACCUAUUCUTT against Olfr1388,inactive: -0.695
8,GCUGCUUACACAGGAUGUATT against Abcd3,inactive: 0.521
9,GCUACAACCCUGUCUGACATT against P4hb,inactive: -1.54
10,GCUUACCUCUAGAUACACUTT against Snrpd1,inactive: -2.31
11,GGCGGAAGUCCUUAUCAAATT against 2310008H09Rik,inactive: -0.182
12,GGCAUAUACAUCAACAUGATT against 1700067C01Rik,inactive: 0.653
13,GGUGCUGGCAACCUUUUGUTT against Masp1,inactive: -0.89
14,GGGACGUGAACAGCUAAAGTT against AI413782,inactive: 2.65
15,GGUGAAUGUAUAAGUUAUGTT against Icam1,inactive: 0.291
16,GGCCGGAGAAAAACUUUUGTT against Olfr1406,inactive: 1.23
17,GGGUGAAAAGCAUUUCUGUTT against MGI:1923902,inactive: 1.38
18,CCUUUGUGAUGGAUGUUUATT against Dexi,inactive: -0.0408
19,GGCUCAUGUGGUAUAGAAATT against Il1rapl2,inactive: -0.698
20,GGUAGAAAAGAAAAAGACCTT against Stc1,inactive: -0.161
21,CCUAUCAAGGCCAAUUCACTT against Jph2,inactive: 0.629
22,GGAUCUUGGAGAGAUUCAUTT against Muted,inactive: 1.08
23,GGACUCCUCAUGCUGAAGATT against Cdh13,inactive: 0.502

# Look-ups from above.
# z-score, GCUCAUGCAACUCUGCGUUTT against Dpyd is entered as inactive: 1.23
# z-score, GCUUACCUCUAGAUACACUTT against Snrpd1 is entered as inactive: -2.31
# z-score, GCUACAACCCUGUCUGACATT against P4hb is entered as inactive: -1.54

# Additional records.

row,Sequence,z-score
1,GCCCUACAAAAAAGUUAUUTT against Bnip2,inactive: 0.461
2,GGAAUAAUCAAGCUAGGGATT against Satb2,inactive: 0.181
3,GGUGGAAUUUCAGCUCUACTT against 4930572I07Rik,inactive: -0.647
4,GCAUGUCCGUUUAUGUCACTT against Trp53inp2,inactive: 0.265
5,GCUAUGGUAGCUGAUAACATT against AA536743,inactive: -0.615
6,GGAUCUGCUCUCUUAGAAGTT against Gzmn,inactive: -1.5
7,GGUACACUACAUGACUCAUTT against Sall4,inactive: 0.95
8,CGGUGCAGAUGUCGACGAUTT against Sssca1,inactive: 0.479
9,GGCAGGAUCCUUUUCUCUATT against Als2,inactive: -1.15
10,GGAACCUAUGGAAGGCGUATT against Hmga1l4,inactive: 1.05
11,GGAGAUGGCAAUUCCGGUUTT against Pycs,inactive: -1.93
12,CCUGGAGGAGUAUUUACACTT against H2-Ob,inactive: -0.77
13,GCCCGAUGUCAUGUGGACATT against Eya2,inactive: -0.588
14,GGUGGUCCUGGAUCUUUAUTT against Spon2,inactive: -1.87
15,CCUUUACGUUUCUGUGUCUTT against Slc37a4,inactive: -0.238
16,GGAGUUUACAUGAGUACUATT against Slco1a6,inactive: -0.504
17,GGCCCAAGAGAACAUCAAATT against Speer2,inactive: 0.716
18,GGAAAAAAUCACUUUCAUCTT against Sfrs16,inactive: -0.125
19,GCUUCCAAUUACUUAUCCATT against Phc3,inactive: 0.881
20,GGCCAUUUGUCACAUAUGUTT against Tyk2,inactive: 0.405
21,GCUUCGUGGGUGAAGGAUATT against Ofcc1,inactive: -1.8
